Measurements reported in publication PMC10709142.
No constants are given. Whether binding was seen depends on the method and setting. In cells and extracts the contact can be indirect. Some results given as binding are weak or reduced against the parent protein; the word gives no strength.

Protein sequences, listed by entry. Tags and fused reporters are not part of them.
UniProt O75444: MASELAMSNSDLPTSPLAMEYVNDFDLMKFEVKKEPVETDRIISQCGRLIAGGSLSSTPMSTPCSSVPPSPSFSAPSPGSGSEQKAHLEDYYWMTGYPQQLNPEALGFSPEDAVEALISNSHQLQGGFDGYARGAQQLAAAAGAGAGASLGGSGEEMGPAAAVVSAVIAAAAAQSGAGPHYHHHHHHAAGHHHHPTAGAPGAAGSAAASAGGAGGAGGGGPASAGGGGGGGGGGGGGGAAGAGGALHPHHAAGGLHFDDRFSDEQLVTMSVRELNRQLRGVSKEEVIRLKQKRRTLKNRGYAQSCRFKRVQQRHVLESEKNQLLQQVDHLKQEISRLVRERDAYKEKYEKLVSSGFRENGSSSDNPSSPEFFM
UniProt Q9Y6Q9: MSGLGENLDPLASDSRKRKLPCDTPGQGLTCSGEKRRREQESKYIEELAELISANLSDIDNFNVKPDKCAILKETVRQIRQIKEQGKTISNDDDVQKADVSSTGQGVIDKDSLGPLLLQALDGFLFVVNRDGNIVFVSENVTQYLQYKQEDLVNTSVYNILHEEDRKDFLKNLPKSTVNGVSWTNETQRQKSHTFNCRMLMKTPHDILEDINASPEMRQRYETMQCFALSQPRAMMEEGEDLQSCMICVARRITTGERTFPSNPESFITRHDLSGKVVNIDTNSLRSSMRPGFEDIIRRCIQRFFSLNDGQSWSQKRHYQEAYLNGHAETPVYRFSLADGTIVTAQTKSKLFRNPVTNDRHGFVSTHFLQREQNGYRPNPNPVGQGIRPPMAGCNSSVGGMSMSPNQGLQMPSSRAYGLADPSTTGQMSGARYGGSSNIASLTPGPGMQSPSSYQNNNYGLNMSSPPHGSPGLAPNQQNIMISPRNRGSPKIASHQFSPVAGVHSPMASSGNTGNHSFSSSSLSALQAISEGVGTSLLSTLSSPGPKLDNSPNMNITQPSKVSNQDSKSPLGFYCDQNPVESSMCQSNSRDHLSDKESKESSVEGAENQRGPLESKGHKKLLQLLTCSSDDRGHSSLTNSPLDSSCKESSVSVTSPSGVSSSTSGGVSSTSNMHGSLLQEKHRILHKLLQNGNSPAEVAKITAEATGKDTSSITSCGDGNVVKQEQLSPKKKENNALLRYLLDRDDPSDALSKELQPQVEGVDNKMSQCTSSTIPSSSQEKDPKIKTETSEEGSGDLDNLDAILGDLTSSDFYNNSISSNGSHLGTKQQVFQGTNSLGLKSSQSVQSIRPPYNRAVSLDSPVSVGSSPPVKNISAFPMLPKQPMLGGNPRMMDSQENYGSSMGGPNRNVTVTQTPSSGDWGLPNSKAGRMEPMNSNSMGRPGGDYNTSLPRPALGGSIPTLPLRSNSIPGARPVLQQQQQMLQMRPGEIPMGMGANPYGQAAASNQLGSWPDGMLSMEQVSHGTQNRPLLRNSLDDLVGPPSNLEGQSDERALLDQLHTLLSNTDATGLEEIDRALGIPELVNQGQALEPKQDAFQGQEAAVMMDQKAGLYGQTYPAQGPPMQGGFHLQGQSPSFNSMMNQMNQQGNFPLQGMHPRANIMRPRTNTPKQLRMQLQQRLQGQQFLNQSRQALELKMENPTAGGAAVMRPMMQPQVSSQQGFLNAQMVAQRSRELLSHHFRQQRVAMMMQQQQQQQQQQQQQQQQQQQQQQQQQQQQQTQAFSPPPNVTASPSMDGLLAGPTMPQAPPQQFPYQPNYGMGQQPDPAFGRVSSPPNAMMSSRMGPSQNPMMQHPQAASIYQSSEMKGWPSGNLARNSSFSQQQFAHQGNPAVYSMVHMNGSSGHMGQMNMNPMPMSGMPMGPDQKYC
UniProt O75376: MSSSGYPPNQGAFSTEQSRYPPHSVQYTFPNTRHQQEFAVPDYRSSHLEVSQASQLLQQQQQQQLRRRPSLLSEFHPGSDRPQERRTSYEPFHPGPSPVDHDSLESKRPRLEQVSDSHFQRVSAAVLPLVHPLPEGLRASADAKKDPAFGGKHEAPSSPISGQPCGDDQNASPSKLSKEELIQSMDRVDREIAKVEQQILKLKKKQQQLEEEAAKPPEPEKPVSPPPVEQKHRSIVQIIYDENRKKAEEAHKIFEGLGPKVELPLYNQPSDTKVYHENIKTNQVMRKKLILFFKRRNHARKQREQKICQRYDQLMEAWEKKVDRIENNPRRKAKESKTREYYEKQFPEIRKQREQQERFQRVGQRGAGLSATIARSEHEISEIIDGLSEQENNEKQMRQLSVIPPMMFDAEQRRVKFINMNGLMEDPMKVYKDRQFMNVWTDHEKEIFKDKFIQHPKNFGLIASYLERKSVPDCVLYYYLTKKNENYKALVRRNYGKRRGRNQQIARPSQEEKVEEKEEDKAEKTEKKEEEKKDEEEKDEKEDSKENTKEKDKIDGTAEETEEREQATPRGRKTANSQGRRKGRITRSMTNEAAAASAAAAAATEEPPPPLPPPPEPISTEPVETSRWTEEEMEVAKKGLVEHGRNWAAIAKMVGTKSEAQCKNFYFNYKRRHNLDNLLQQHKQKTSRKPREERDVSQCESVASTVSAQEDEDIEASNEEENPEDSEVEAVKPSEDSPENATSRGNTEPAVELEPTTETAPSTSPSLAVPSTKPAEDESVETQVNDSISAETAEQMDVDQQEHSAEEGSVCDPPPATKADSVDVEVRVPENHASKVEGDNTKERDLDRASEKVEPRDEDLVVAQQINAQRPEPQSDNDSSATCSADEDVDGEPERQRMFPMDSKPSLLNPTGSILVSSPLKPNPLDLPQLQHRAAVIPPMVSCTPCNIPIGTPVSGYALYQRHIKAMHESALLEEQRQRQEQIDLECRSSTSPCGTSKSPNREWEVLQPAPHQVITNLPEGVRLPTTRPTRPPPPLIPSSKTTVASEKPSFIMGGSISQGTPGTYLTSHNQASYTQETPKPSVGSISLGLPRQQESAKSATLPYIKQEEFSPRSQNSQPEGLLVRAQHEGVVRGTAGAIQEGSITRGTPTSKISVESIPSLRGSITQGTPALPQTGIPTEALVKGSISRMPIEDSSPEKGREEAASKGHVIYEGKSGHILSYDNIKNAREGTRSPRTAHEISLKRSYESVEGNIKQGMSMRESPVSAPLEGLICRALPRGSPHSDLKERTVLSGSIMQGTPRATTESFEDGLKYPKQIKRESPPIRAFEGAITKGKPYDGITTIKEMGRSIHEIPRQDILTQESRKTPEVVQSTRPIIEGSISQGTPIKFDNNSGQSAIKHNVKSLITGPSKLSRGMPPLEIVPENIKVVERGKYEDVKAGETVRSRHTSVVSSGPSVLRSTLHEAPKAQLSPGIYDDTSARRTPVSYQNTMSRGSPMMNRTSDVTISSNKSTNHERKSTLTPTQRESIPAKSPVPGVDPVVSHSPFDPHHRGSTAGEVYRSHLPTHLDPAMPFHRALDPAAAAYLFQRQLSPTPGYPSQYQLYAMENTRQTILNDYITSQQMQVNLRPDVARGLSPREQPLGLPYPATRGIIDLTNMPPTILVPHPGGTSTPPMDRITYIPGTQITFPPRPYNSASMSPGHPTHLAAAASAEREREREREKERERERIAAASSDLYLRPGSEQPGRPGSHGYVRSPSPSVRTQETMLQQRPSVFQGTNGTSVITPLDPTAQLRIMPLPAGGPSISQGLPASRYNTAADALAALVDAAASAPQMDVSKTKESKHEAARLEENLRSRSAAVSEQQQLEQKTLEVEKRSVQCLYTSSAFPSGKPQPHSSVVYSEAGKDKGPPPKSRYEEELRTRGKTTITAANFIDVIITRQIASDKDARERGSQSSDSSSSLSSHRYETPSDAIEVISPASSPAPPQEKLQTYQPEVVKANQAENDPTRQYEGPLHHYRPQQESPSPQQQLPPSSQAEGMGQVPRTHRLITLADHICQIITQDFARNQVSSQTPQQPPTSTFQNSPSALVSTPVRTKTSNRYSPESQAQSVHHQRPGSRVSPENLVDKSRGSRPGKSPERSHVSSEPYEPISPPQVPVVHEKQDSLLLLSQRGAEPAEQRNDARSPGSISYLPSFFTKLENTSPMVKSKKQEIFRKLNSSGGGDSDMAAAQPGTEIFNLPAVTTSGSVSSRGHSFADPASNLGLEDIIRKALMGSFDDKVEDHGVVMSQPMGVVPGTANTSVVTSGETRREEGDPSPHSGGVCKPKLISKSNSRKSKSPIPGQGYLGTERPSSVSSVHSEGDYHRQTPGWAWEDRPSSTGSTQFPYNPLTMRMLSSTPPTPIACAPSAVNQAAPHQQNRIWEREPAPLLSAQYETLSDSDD
UniProt P03372: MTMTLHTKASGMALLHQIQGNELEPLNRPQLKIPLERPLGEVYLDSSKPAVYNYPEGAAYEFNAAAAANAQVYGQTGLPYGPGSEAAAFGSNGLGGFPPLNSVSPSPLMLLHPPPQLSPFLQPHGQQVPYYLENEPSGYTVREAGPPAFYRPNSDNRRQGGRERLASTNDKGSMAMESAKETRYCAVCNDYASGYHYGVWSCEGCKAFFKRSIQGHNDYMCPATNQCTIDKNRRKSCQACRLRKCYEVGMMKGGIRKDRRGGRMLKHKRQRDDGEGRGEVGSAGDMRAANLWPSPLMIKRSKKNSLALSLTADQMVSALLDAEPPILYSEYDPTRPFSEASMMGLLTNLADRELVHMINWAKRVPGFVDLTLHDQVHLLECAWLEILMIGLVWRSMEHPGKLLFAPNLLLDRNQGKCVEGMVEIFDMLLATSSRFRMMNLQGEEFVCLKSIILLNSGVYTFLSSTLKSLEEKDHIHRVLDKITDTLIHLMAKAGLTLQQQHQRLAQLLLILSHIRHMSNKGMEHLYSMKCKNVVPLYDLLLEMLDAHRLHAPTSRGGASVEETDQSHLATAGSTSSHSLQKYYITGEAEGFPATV

Molecular target: HA-tagged MAF short isoform (pCMV5, N-terminal 2xHA) (UniProt O75444)
Experiment: co-IP; MCF7 cells 48 h after transfection with pCMV5 HA-MAF (S or L) or empty plasmid; 500 µg lysate (50 mM Tris-HCl pH 7.4, 100 mM NaCl, 1% Triton X-100) on anti-HA magnetic beads overnight at 4 °C; immunoblot of endogenous partners; also after ER-PROTAC (KDM1A) and in cells with scrambled or KDM1A-targeted shRNA (ER)

binding | Substance
binds | NCoA3 (from UniProt Q9Y6Q9 1-1424)
binds | NCoR1 (from UniProt O75376 1-2440)
binds | oestrogen receptor alpha (from UniProt P03372 1-595)
